Counter-ions that a name gives are not always drawn. The list shows a part of the results. Most entries show no effect beyond the scatter of the controls.
system: hPSC-derived cortical neurons (WA09); assay: KCl-induced FOS+/EGR-1+ double-positive nuclei fraction z-score (KCl minus unstimulated); higher = stronger activity-induced IEG response; details: 5 µM; treatment: days 7-14 after plating, readout day 21

| SMILES | KCl-induced FOS+/EGR-1+ double-positive nuclei fraction z-score |
| --- | --- |
| CCN(CC)CCOCCOC(=O)C1(c2ccccc2)CCCC1 [Pentoxyverine Citrate] | -0.531 |
| COc1ccc(Cl)cc1C(=O)NCCc1ccc(S(=O)(=O)NC(=O)NC2CCCCC2)cc1 [Glyburide] | -0.205 |
| Oc1ccc(-c2nc(-c3ccc(F)cc3)c(-c3ccncc3)[nH]2)cc1 | 1.08 |
| CN(C)C(=O)C(CCN1CCC(O)(c2ccc(Cl)cc2)CC1)(c1ccccc1)c1ccccc1 [Loperamide HCl] | 0.0568 |
| CCCCNc1cc(C(=O)O)cc(S(N)(=O)=O)c1Oc1ccccc1 [Bumetanide] | 1.8 |
| Nc1ccc(S(=O)(=O)c2ccc(N)cc2)cc1 [Dapson] | 0.218 |
| CNC(=O)[C@@H](NC(=O)[C@H](CC(C)C)[C@H](O)C(=O)NO)C(C)(C)C [Marimastat(BB-2516)] | 0.806 |
| Cc1cccc(N(C)C(=S)Oc2ccc3ccccc3c2)c1 [Tolnaftate] | 0.465 |
| CCn1c(=O)c(-c2cc[nH]n2)cc2c(C)nc(N)nc21 | -0.31 |
| OC[C@@H](O)[C@@H](O)[C@H](O)[C@H](O)CO [D-Mannitol] | 0.532 |
| OCc1cc(C(O)CNCCCCCCOCCCCc2ccccc2)ccc1O (centres undefined) [Salmeterol Xinafoate] | -0.364 |
| C#C[C@]1(O)CC[C@H]2[C@@H]3CCc4cc(OC)ccc4[C@H]3CC[C@@]21C [Mestranol] | -0.744 |
| COc1cc(Nc2ncc(F)c(Nc3ccc4c(n3)N(COP(=O)(O)O)C(=O)C(C)(C)O4)n2)cc(OC)c1OC [Fostamatinib (R788)] | -1.62 |
| CCn1cc(C(=O)O)c(=O)c2ccc(C)nc21 [Nalidixic acid] | 0.584 |
| O=C(O)c1cc(/N=N/c2ccc(O)c(C(=O)O)c2)ccc1O [Olsalazine Sodium] | 0.214 |
| O=C(O)c1ccccc1 [Benzoic Acid] | -0.0188 |
| CNC(=O)c1ccc(N2C(=S)N(c3cnc(C#N)c(C(F)(F)F)c3)C(=O)C23CCC3)cc1F | -0.0646 |
| COC(=O)[C@H](CCSC)NC(=O)c1ccc(NC[C@@H](N)CS)cc1-c1ccccc1 | 2.98 |
| C=C1/C(=C\C=C2/CCC[C@]3(C)[C@@H]([C@H](C)/C=C/[C@H](C)C(C)C)CC[C@@H]23)C[C@@H](O)C[C@@H]1O [Doxercalciferol] | 0.892 |
| Cc1cnc(Nc2ccc(OCCN3CCCC3)cc2)nc1Nc1cccc(S(=O)(=O)NC(C)(C)C)c1 | -3.4 |

| SMILES | KCl-induced FOS+/EGR-1+ double-positive nuclei fraction z-score |
| --- | --- |
| C#Cc1cccc(Nc2ncnc3cc(OCCOC)c(OCCOC)cc23)c1 [Erlotinib] | -0.253 |
| O=c1[nH]c(C2CCCN2)nc2c1oc1ccc(Cl)cc12 (centres undefined) | 0.0705 |
| C[C@H]1C[C@H]2[C@@H]3CCC4=CC(=O)C=C[C@]4(C)[C@H]3C(=O)C[C@]2(C)[C@@]1(O)C(=O)CO [Meprednisone] | -0.0405 |
| NS(=O)(=O)c1cc(Cl)c(Cl)c(S(N)(=O)=O)c1 [Dichlorphenamide] | 2.31 |
| CCOc1ccccc1OCCN[C@H](C)Cc1ccc(OC)c(S(N)(=O)=O)c1 [Tamsulosin hydrochloride] | -0.941 |
| CC(C)NCC(O)COc1ccc(COCCOC(C)C)cc1 (centres undefined) [Bisoprolol fumarate] | 2.21 |
| CN(C)c1ccc(C(=C2C=CC(=[N+](C)C)C=C2)c2ccc(N(C)C)cc2)cc1 [Crystal Violet] | -0.97 |
| Cc1csc(-c2nnc(Nc3ccc(Oc4ncccc4-c4ccnc(N)n4)cc3)c3ccccc23)c1 | -0.276 |
| CN1CC2c3ccccc3Oc3ccc(Cl)cc3C2C1 (centres undefined) [Asenapine] | -0.917 |
| O=c1ccc2ccc(OCCCCN3CCN(c4cccc5sccc45)CC3)cc2[nH]1 [Brexpiprazole] | 0.209 |
| CN1CCC(CNc2ccc3ncc(-c4cccc(OC(F)(F)F)c4)n3n2)CC1 [SGI-1776 free base] | -0.956 |
| C/C(=N\NC(=S)N1CCC1)c1ccccn1 | -7.4 |
| C=C(C)[C@@H]1CC[C@]2(C(=O)O)CC[C@]3(C)[C@H](CC[C@@H]4[C@@]5(C)CC[C@H](O)C(C)(C)[C@@H]5CC[C@]43C)[C@@H]12 [Betulinic acid] | -0.541 |
| CCn1cc(C(=O)O)c(=O)c2cc(F)c(N3CCNCC3)nc21 [Enoxacin] | -0.32 |
| CN(C)CCOC(C)(c1ccccc1)c1ccccn1 (centres undefined) [Doxylamine Succinate] | 3.17 |
| O=C(NCC(=O)N1CCCC1)Nc1ccc2cnccc2c1 | 0.0348 |
| COc1ccc(C(=O)CC(=O)c2ccc(C(C)(C)C)cc2)cc1 [Avobenzone] | 1.71 |
| O=C1[C@H](Cc2ccc(O)cc2)N2C(=O)CCN(C(=O)NCc3ccccc3)[C@H]2CN1Cc1cccc2ccccc12 | -0.204 |
| CC(C)(C(=O)O)c1ccc(C(O)CCCN2CCC(C(O)(c3ccccc3)c3ccccc3)CC2)cc1 (centres undefined) [Fexofenadine HCl] | -1.22 |

Reformatted field by field: entries from further up
O=c1[nH]c(C2CCCN2)nc2c1oc1ccc(Cl)cc12 (centres undefined)
  KCl-induced FOS+/EGR-1+ double-positive nuclei fraction z-score: 0.0705
C/C(=N\NC(=S)N1CCC1)c1ccccn1
  KCl-induced FOS+/EGR-1+ double-positive nuclei fraction z-score: -7.4
